Our source for the binding values is article PMC11437142.

Sequences of proteins named here, by UniProt entry; tags and fusion partners are left off. A change or cut given only in a name is not applied to a line headed by its entry. A line that says so, or that is headed by a name, gives the form on record, which may keep a tag or linker.
UniProt Q12840: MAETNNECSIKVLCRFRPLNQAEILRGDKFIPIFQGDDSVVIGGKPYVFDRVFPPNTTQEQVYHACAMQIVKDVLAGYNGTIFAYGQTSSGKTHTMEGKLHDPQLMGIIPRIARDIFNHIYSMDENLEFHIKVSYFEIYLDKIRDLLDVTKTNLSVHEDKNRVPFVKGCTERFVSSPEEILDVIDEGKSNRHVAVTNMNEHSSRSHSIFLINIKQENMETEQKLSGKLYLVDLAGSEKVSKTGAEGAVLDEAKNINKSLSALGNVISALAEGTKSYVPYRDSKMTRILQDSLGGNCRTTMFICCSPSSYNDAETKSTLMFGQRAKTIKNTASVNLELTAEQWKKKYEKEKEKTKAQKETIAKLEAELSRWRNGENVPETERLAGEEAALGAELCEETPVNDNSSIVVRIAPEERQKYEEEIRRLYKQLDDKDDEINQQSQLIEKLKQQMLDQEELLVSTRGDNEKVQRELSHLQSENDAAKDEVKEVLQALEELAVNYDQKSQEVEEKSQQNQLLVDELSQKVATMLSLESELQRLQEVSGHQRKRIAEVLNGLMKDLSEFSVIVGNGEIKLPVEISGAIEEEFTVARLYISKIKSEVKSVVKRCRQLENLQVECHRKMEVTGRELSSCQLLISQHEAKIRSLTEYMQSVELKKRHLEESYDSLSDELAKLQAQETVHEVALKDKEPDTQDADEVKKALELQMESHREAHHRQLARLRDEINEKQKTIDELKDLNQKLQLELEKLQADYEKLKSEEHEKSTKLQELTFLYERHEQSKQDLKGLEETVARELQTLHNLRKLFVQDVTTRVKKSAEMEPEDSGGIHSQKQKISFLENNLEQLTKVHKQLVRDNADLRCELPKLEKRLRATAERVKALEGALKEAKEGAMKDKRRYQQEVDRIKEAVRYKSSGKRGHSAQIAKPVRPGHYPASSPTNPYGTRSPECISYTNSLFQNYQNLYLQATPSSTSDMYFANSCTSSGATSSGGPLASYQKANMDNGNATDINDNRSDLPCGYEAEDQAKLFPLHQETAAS
N999Vfs*40 KIF5A (Q12840, form named): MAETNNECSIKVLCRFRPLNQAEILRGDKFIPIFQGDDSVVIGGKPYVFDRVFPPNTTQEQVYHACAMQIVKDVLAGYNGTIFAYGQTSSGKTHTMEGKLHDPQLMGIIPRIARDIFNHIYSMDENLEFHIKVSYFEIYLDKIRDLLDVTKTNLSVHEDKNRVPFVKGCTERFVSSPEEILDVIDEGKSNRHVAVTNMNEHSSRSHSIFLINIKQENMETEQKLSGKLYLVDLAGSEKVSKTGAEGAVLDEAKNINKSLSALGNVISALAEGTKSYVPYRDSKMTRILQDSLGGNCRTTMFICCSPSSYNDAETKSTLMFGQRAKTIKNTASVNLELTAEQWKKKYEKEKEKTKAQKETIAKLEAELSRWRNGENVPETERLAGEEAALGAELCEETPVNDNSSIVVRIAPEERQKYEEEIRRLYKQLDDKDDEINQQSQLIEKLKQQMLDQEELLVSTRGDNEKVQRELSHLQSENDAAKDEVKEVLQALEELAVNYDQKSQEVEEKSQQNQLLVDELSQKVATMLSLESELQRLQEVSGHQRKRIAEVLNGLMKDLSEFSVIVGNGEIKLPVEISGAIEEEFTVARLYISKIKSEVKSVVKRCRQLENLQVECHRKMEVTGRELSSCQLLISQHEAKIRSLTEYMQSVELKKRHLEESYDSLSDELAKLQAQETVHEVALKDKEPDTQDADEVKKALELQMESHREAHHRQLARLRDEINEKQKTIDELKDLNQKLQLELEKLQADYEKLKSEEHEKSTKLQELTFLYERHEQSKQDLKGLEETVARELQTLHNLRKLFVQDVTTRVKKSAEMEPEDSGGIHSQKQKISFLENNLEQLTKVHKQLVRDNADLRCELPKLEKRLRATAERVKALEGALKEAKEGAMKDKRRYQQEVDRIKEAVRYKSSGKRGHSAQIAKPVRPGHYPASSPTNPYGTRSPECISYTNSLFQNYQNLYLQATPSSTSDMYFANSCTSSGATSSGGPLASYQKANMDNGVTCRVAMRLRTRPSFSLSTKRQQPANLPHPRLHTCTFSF
C975Vfs*73 KIF5A (Q12840, form named): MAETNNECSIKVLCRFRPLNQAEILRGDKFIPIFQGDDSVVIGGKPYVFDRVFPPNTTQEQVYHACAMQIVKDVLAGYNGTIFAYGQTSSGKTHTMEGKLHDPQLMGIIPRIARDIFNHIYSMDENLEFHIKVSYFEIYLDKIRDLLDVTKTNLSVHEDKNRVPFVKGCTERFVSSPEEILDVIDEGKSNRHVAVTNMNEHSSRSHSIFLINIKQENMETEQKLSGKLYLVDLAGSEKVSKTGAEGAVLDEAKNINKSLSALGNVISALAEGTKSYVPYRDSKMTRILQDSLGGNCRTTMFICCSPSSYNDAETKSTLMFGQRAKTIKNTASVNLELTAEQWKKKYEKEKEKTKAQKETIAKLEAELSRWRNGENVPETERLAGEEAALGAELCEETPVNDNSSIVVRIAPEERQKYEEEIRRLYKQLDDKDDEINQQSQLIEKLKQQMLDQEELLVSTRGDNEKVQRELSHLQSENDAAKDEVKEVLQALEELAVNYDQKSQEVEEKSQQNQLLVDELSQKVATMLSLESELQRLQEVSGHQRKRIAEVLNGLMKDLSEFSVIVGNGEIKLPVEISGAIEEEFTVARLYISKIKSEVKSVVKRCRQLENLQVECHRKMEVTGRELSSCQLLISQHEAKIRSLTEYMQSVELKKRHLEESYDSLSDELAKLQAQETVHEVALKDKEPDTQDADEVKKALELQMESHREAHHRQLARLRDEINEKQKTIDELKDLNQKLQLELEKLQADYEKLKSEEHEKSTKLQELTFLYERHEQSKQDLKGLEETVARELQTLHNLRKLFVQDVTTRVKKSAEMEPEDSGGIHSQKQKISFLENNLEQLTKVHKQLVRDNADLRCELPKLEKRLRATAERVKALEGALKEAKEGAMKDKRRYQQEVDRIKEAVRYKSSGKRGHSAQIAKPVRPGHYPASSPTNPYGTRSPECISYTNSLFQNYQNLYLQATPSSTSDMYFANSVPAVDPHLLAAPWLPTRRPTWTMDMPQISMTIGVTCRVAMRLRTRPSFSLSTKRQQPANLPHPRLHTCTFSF

These are yes or no findings as the source states them, for the method shown. Binding seen in cells or lysates may run through a third protein. Some results given as binding are weak or reduced against the parent protein; the word gives no strength.

Among the targets are N999Vfs*40 KIF5A (human) (UniProt Q12840); C975Vfs*73 KIF5A (human) (UniProt Q12840); R17Q KIF5A (human) (UniProt Q12840).
Common to all, as to test: co-IP; anti-FLAG antibody on Protein G magnetic beads incubated with 250 ug RIPA-soluble extract of transfected SH-SY5Y cells (harvested the day after transfection) for 1 h at 4 °C, washed in PBS-T, western blot
In general terms: A western blot detects proteins with antibodies after separation by electrophoresis.

Regarding SQSTM1/p62 (from UniProt Q13501 1-440), the binding result with N999Vfs*40 KIF5A (human) and with C975Vfs*73 KIF5A (human) was “binds” throughout.

As to “wild-type (WT) KIF5A (from UniProt Q12840 1-1032)”, the binding result with N999Vfs*40 KIF5A (human) and in the test with R17Q KIF5A (human) was “binds” in each case.
